Here are results for 28 molecules from PubChem BioAssay AID330 (DTP/NCI, 2004).

The list shows only some results of the screen, not a fair sample: it gathers tests that were run many times, whatever their T/C, doses with no T/C, and many T/C values between a quarter and a half above the control. Other doses and runs of a compound stand elsewhere. T/C is the treated group as % of the vehicle group. Some doses have a count of surviving animals in place of a T/C: the source files T/C as zero there, which appears to mark a toxic dose or a test without result, not a measured value. Some survivor counts are full or nearly so, which does not show that the dose was tolerated: the source hardly ever lists a survival T/C far under the control, and the zero likely stands for such cases as well. Counts of survivors are from the toxicity check (mostly the fifth day) where no day follows; animals may have died later. Schedule codes are those of the source, read here as Q, the interval in days (D) or hours (H), X, the number of doses. For survival time, the PubChem record calls one and a half times the control and up active, and a quarter to a half above the control has no call in these data; cut-offs in other NCI protocols can differ. Brackets with × give the number of equal values in this list. Some T/C values are followed by the survivors on the day toxicity was checked, most often the fifth; where none is given, no animal had died by that day. Some entries hold several experiments; the values are given in rising order.

In this test the test system is P388 leukemia ip, CD2F1 mice, survival T/C. In words: NCI In Vivo Anticancer Drug Screen. Data for tumor model P388 Leukemia (intraperitoneal) in CD2F1 (CDF1) mice. As to conditions: T/C endpoint: median survival time, higher T/C = longer survival.
Setting [1] is: dose: 100.0 mg/kg/injection, schedule: Q01DX001 (ip), vehicle: saline with Tween-80.
The mark [2] stands for this setting: dose: 50.0 mg/kg/injection, schedule: Q01DX009 (ip), vehicle: saline with Tween-80.
Where [3] appears, read: dose: 100.0 mg/kg/injection, schedule: Q01DX009 (ip), vehicle: saline with Tween-80.
Setting [4] is: dose: 100.0 mg/kg/injection, schedule: Q01DX005 (ip), vehicle: saline with Tween-80.
The mark [5] stands for this setting: dose: 200.0 mg/kg/injection, schedule: Q01DX005 (ip), vehicle: saline with Tween-80.
Where [6] appears, read: dose: 200.0 mg/kg/injection, schedule: Q01DX009 (ip), vehicle: saline with Tween-80.
Where [7] appears, read: dose: 25.0 mg/kg/injection, schedule: Q01DX009 (ip), vehicle: saline.
The mark [8] stands for this setting: dose: 200.0 mg/kg/injection, schedule: Q01DX001 (ip), vehicle: saline with Tween-80.
Setting [9] is: dose: 120.0 mg/kg/injection, schedule: Q01DX005 (ip), vehicle: saline with Tween-80.
Where [10] appears, read: dose: 240.0 mg/kg/injection, schedule: Q01DX005 (ip), vehicle: saline with Tween-80.

For `CCCCCCCCCCCCCCCC(=O)N(CCCCN(C)C)CCCCN(C)C`, the survivor count is reported as 2 of 6 (dose: 2.0 mg/kg/injection, schedule: Q01DX009 (ip), vehicle: saline); 0 of 6 (dose: 4.0 mg/kg/injection, schedule: Q01DX009 (ip), vehicle: saline); 0 of 6 (dose: 8.0 mg/kg/injection, schedule: Q01DX009 (ip), vehicle: saline).

On to `NC(N)=N/N=C1\C/C(=N\N=C(N)N)c2ccccc21`, for which, under setting [1], the survivor count is given as 0 of 6.

`O=C(O)C1=C(C=C(c2ccccc2)c2ccccc2)OCCC1`: the survivor count is, setting by setting: under setting [2], 6 of 6; under setting [3], 6 of 6.

As to `CC(=O)OCC1=C(c2ccccc2)S(=O)(=O)c2ccccc2C1=O`, the survivor count (dose: 50.0 mg/kg/injection, schedule: Q01DX005 (ip), vehicle: saline with Tween-80) is 1 of 6; the survivor count under setting [4] was 0 of 6; the survivor count under setting [5] is 0 of 6.

As to `N#Cc1c(-c2ccc(Cl)cc2)c(-c2ccc(Cl)cc2)nn(CCOC(=O)CCC(=O)O)c1=O`, the T/C by setting is: (dose: 50.0 mg/kg/injection, schedule: Q01DX005 (ip), vehicle: saline) 133 and 148 % of control [5 of 6 alive]; (dose: 50.0 mg/kg/injection, schedule: Q01DX005 (ip), vehicle: sodium bicarbonate) 128 % of control; (dose: 50.0 mg/kg/injection, schedule: Q04DX002 (ip), vehicle: distilled water + Tween-80) 126 and 132 % of control. The survivor count by setting is: (dose: 100.0 mg/kg/injection, schedule: Q01DX005 (ip), vehicle: distilled water + Tween-80) 0 of 6; (dose: 100.0 mg/kg/injection, schedule: Q01DX005 (ip), vehicle: saline) 0 of 6; (dose: 200.0 mg/kg/injection, schedule: Q01DX005 (ip), vehicle: saline) 0 of 6; (dose: 200.0 mg/kg/injection, schedule: Q01DX005 (ip), vehicle: sodium bicarbonate) 0 of 6; (dose: 200.0 mg/kg/injection, schedule: Q04DX002 (ip), vehicle: distilled water + Tween-80) 2 of 6.

Take `CCCCCN(CCCCC)CCC(O)c1cccc2ccccc12` (configuration not stated): the survivor count is listed as 2 of 5 under setting [4] and 0 of 5 under setting [5].

For the molecule `NC(=O)C1=CC2C3C=CC2(O)C(=O)OC3O1` (configuration not stated), the T/C is 126 % of control (2×) (dose: 15.0 mg/kg/injection, schedule: Q01DX005 (ip), vehicle: Klucel (hydroxypropylcellulose) (HPC)) and 145 % of control [5 of 6 alive] (dose: 30.0 mg/kg/injection, schedule: Q01DX005 (ip), vehicle: Klucel (hydroxypropylcellulose) (HPC)). The survivor count (dose: 60.0 mg/kg/injection, schedule: Q01DX005 (ip), vehicle: Klucel (hydroxypropylcellulose) (HPC)) was 0 of 6.

Take `Fc1ccc(NC(=S)NC2CC2)c(F)c1`: the survivor count under setting [6] was 0 of 6.

With `COC1=C2CCC3c4cc(OC)c(OC)cc4CC[N+]3=C2CC1` (configuration not stated), the survivor count (dose: 200.0 mg/kg/injection, schedule: Q01DX005 (ip), vehicle: Klucel (hydroxypropylcellulose) (HPC)) is 2 of 6.

Take `CCNC1CC(C)(O)Cc2cc3c(c(O)c21)C(=O)c1c(O)cc2c(c1C3=O)OC1OC2(C)C(O)C(N(C)C)C1O` (configuration not stated): the T/C (dose: 12.5 mg/kg/injection, schedule: Q01DX009 (ip), vehicle: other) is 146 % of control. The survivor count (dose: 100.0 mg/kg/injection, schedule: Q01DX009 (ip), vehicle: other) is 2 of 6.

Take `CC1=C(C)SC(=S)NN1`: the survivor count under setting [7] is given as 0 of 6; the survivor count (dose: 50.0 mg/kg/injection, schedule: Q01DX009 (ip), vehicle: suspension in saline) is 0 of 6; the survivor count (dose: 100.0 mg/kg/injection, schedule: Q01DX009 (ip), vehicle: suspension in saline) is on record as 1 of 6; the survivor count (dose: 200.0 mg/kg/injection, schedule: Q01DX009 (ip), vehicle: suspension in saline) is on record as 0 of 6; the survivor count (dose: 400.0 mg/kg/injection, schedule: Q01DX009 (ip), vehicle: suspension in saline) was 0 of 6.

As for `CCC(c1ccc(OC)cc1)C(NCC(=O)N/N=C/c1ccccc1[N+](=O)[O-])c1ccc(OC)cc1` (configuration not stated), the survivor count was 6 of 6 under setting [1] and 6 of 6 under setting [8].

For the molecule `COc1ccc(Nc2ccc([N+](=O)[O-])c3nonc23)cc1`, the survivor count under setting [5] was 6 of 6.

Turning to `O=[N+]([O-])c1ccc(S/N=C\c2ccccc2)c([N+](=O)[O-])c1`, the survivor count by setting is: under setting [3], 6 of 6; under setting [6], 6 of 6.

`CC1(C)CCC(C)(C)NC(=S)N1`: the survivor count reads like this: under setting [2], 0 of 6; under setting [3], 0 of 6; under setting [6], 0 of 6.

`Cc1cc(Nc2ccc(N(C)C)cc2)c2cc(N(C)C)ccc2n1`: the survivor count under setting [6] is 3 of 6.

As for `CCN(CC)CCCCNc1ccc(NCCCCN(CC)CC)c2c1C(=O)c1ccccc1C2=O`, the survivor count (dose: 12.5 mg/kg/injection, schedule: Q01DX009 (ip), vehicle: saline) was 5 of 6; the survivor count under setting [7] is 6 of 6; the survivor count under setting [3] is 0 of 6; the survivor count under setting [6] is on record as 1 of 6. Also, the T/C is 128 % of control (dose: 25.0 mg/kg/injection, schedule: Q01DX009 (ip), vehicle: saline with Tween-80) and 128 % of control under setting [2].

On to `Cn1c(N)c(N=O)c(=O)n(C)c1=O`, for which the survivor count (dose: 720.0 mg/kg/injection, schedule: Q01DX009 (ip), vehicle: saline with Tween-80) is reported as 5 of 6.

Turning to `CCC/C=C(\CC)COC(=O)Nc1ccccc1`, the survivor count under setting [5] is 5 of 5.

On to `CCCCCCC[CH2][Sn]([CH2]C)([CH2]C)[O]C(C)=O`, for which the survivor count is recorded as 2 of 6 (dose: 0.5 mg/kg/injection, schedule: Q01DX009 (ip), vehicle: saline with Tween-80) and 1 of 6 (dose: 1.0 mg/kg/injection, schedule: Q01DX009 (ip), vehicle: saline with Tween-80).

`O=CNC(Cc1ccccc1)C(=O)O` (configuration not stated): the survivor count under setting [5] was 6 of 6.

With `C=CCN1CCC23c4c5ccc(O)c4OC2C(=NN=C2CCC4(O)C6Cc7ccc(O)c8c7C4(CCN6CC=C)C2O8)CCC3(O)C1C5` (configuration not stated), the survivor count is on record as 2 of 6 under setting [9] and 0 of 6 under setting [10].

As for `CC1(C)N=C(N)N=C(N)N1c1ccc(CCCCc2cccc(S(=O)(=O)F)c2)c(Cl)c1`, the T/C (dose: 0.38 mg/kg/injection, schedule: Q01DX009 (ip), vehicle: saline with Tween-80) was 125 % of control; the T/C (dose: 2.2 mg/kg/injection, schedule: Q01DX009 (ip), vehicle: saline with Tween-80) was 145 % of control; the T/C (dose: 5.5 mg/kg/injection, schedule: Q01DX009 (ip), vehicle: saline with Tween-80) was 145 % of control. Also, the survivor count is on record as 5 of 6 (dose: 27.0 mg/kg/injection, schedule: Q01DX009 (ip), vehicle: saline) and 0 of 6 (dose: 40.0 mg/kg/injection, schedule: Q01DX009 (ip), vehicle: saline).

As for `CC(CN1CCOCC1)(CN1CCOCC1)[N+](=O)[O-]`, the survivor count (dose: 200.0 mg/kg/injection, schedule: Q01DX009 (ip), vehicle: saline) was 2 of 6.

Consider `N#CC1N(C(=O)Oc2ccccc2)c2ccccc2N1C(=O)Oc1ccccc1`, for which the survivor count is reported as 6 of 6 (dose: 30.0 mg/kg/injection, schedule: Q01DX005 (ip), vehicle: saline with Tween-80); 6 of 6 (dose: 60.0 mg/kg/injection, schedule: Q01DX005 (ip), vehicle: saline with Tween-80); 5 of 6 under setting [9]; 6 of 6 under setting [10].

With `Cn1c2ccc([N+](=O)[O-])cc2c(=O)c2c(O)cc3c(c21)C=CC(C)(C)O3`, the survivor count under setting [8] is listed as 6 of 6 and the survivor count (dose: 400.0 mg/kg/injection, schedule: Q01DX001 (ip), vehicle: saline with Tween-80) is reported as 6 of 6.

Consider `CCOC(=O)c1cc2c(ccc3ccccc32)[nH]1`, for which the survivor count under setting [10] is 1 of 6.

With `Cn1c(=O)c2c(c3ccccc31)Oc1oc3ccc4ccccc4c3c(=O)c1C2`, under setting [2], the survivor count is listed as 6 of 6.
